According to US20020028479A1, “Methods for the detection of fungal growth” (priority 2000, published 2002):
Values after ≈ are worked out from the molar mass of the structure shown.

Tested on: Aspergillus nidulans 200092
Assay: MTS/MEN growth inhibition assay, OD490;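 note: fungal spore suspensions in 96-well plates with MTS/MEN indicator, absorbance read after 2 h and again after further development up to 24 h, controls containing medium only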

Clc1ccccc1C(c1ccccc1)(c1ccccc1)n1ccnc1 [Clotrimazole, clotrimazole]
IC50 (Aspergillus nidulans, 200092, 2 h): 0.0325 µg/mL (≈ 0.0943 µM)
IC50 (Aspergillus nidulans, 200092, 24 h): 0.00068 µg/mL (≈ 0.00197 µM)
